The text below walks through data of article doi:10.1101/2022.02.03.479028.

The chains behind the UniProt entries cited, without tags or fusion partners.
UniProt Q6P1M0: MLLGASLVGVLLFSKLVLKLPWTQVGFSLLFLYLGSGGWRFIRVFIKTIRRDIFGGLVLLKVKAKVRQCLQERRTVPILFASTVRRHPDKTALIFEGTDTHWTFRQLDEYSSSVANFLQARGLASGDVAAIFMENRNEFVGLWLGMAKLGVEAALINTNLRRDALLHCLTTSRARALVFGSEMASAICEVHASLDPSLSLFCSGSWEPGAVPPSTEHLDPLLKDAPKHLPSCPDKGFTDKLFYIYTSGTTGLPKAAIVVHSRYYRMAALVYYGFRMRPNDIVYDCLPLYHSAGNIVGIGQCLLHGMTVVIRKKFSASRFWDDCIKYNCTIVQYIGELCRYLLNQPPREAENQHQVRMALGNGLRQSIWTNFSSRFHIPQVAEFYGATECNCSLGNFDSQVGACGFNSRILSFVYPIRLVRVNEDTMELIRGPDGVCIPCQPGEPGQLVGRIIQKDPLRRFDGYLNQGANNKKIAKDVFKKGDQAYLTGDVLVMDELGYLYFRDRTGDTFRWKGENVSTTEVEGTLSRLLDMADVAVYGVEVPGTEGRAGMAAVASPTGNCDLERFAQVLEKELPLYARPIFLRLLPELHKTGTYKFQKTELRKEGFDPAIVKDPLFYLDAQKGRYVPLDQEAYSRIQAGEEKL

For the assay, the target named is T1, full-length mEmerald tagged Plin5 (perilipin 5) (UniProt Q8BVZ1).
T1 sequence: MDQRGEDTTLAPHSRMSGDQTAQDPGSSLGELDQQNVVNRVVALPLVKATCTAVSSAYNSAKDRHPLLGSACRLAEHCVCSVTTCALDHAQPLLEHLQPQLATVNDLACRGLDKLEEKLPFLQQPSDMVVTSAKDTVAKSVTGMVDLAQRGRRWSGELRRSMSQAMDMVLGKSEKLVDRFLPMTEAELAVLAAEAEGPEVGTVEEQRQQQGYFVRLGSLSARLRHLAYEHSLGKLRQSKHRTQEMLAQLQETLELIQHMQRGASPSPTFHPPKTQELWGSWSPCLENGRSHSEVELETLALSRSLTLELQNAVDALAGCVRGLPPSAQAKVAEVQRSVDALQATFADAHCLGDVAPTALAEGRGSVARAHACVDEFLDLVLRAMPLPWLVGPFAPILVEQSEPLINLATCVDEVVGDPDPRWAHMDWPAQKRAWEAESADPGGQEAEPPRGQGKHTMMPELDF
As to the kind of experiment: co-IP.

These are yes or no findings as the source states them, for the method shown. In cells and extracts the contact can be indirect. Some entries that bind do so weakly or less than the wild type. Sequences can lack the tags named with a protein.

With “Fatp4 (ACSVL4), acyl-CoA synthetase (from UniProt Q6P1M0 1-643) (enzyme)”, the binding entry is on record as “binds”.
